Source: patent US8426559B2, “Injectable β-hairpin peptide hydrogel that kills methicillin-resistant Staphylococcus aureus” (University of Delaware, priority 2009, dated 2013)
Not every detail of the peptide structures is certain; ends, links or a residue may be inferred. Non-standard residues stand in square brackets, D forms with d. Residues, ends and D or L forms follow the SMILES beside them.

Tested on: MSSA (methicillin-susceptible Staphylococcus aureus, ATCC 25923)
Test: Antibacterial assay: bacteria introduced onto hydrogel-coated TCTP surface, proliferation by OD625nm
Assay type: cell-based
Conditions: 2 wt % hydrogel on TCTP, all bacterial cell loading densities, 24 h, compared to uncoated surface
Procedure: The antibacterial activity of MARG1 hydrogels was assessed via two distinct assays. In the first assay, bacteria were introduced to the surface of tissue culture treated polystyrene (TCTP) coated with a ˜1-2 mm layer of the gel and its ability to inhibit bacterial proliferation was assessed. This assay measures the ability of MARG1 gels to thwart new infection at a particular site. Here, gels were formed directly on the polystyrene surface without the aid of shear-thin delivery. In the second assay, MARG1 gels were shear-thin delivered via syringe to agar surfaces infected with bacteria, and the ability of the gel to kill bacteria on contact was measured. This assay simulates the introduction of the MARG1 gel via syringe to a bacterial contaminated surface, such as a wound.
Hydrogels for the antibacterial assays were prepared in separate wells of 96-well tissue culture-treated polystyrene plates (Costar 3595). […]
For each assay, 100 μL of bacteria-free TSB was introduced onto the surface of the hydrogels. […] After this, bacterial growth was monitored by measuring OD625nm of the liquid above the gel by adding 100 μL of bacteria-free TSB to the surfaces, gently mixing and transferring the supernatant to a cuvette. Corrected OD625nm values were calculated to correct for dilution and to normalize for scattering that occurs for each individual bacterial strain. […]

CC(C)[C@H](N)C(=O)N[C@@H](CCCCN)C(=O)N[C@H](C(=O)N[C@@H](CCCCN)C(=O)N[C@H](C(=O)N[C@@H](CCCNC(=N)N)C(=O)N[C@H](C(=O)N[C@@H](CCCCN)C(=O)N[C@H](C(=O)N1CCC[C@@H]1C(=O)N1CCC[C@H]1C(=O)N[C@H](C(=O)N[C@@H](CCCCN)C(=O)N[C@H](C(=O)N[C@@H](CCCCN)C(=O)N[C@H](C(=O)N[C@@H](CCCNC(=N)N)C(=O)N[C@H](C(=O)N[C@@H](CCCCN)C(=O)N[C@H](C(N)=O)C(C)C)C(C)C)C(C)C)C(C)C)[C@@H](C)O)C(C)C)C(C)C)C(C)C)C(C)C [MARG1, VKVKVRVKV^DPPTKVKVRVKV-NH2] (H-VKVKVRVKV[dP]PTKVKVRVKV-NH2)
MSSA proliferation on hydrogel-coated surface (OD): can inhibit bacterial proliferation
